Among the data in PubChem BioAssay AID330 (DTP/NCI, 2004) are survivor count and T/C values, retold here.

Each structure is given as a SMILES string. The list does not hold the whole screen: it gathers tests that were run many times, whatever their T/C, doses with no T/C, and many T/C values between a quarter and a half above the control. Further doses and runs are listed elsewhere. T/C is the treated group as % of the vehicle group. Some doses have a count of surviving animals in place of a T/C: the source holds a T/C of zero for them, seemingly a mark for toxic or unscored doses. Some doses without a T/C left all or most animals alive at the check, yet need not have been tolerated: survival well below the control is almost never listed, so the zero probably covers shortened survival too. Survivors were counted at the toxicity check, usually on the fifth day, unless a day is given; later deaths do not show. Schedules are NCI's codes, taken here to give the interval after Q, in days (D) or hours (H), and the number of doses after X. Some doses were run more than once; the results are listed from low to high. Some structures stand for samples that the source files as different forms (salt, stereo form or complex); doses refer to the form tested. For survival time, this PubChem deposit counts one and a half times the control or more as active, and values a quarter to a half above the control carry no call in these data; other NCI protocols may use other cut-offs. Additions like (4×) stand for listed records that agree. Some T/C values carry the count of animals alive at the toxicity check (mostly the fifth day); where none is given, no animal had died by that day.

The test has as its system P388 leukemia ip, CD2F1 mice, survival T/C. Description: NCI In Vivo Anticancer Drug Screen. Data for tumor model P388 Leukemia (intraperitoneal) in CD2F1 (CDF1) mice. The note with it: T/C endpoint: median survival time, higher T/C = longer survival.
Where [1] appears, read: dose: 200.0 mg/kg/injection, schedule: Q01DX009 (ip), vehicle: saline with Tween-80.
[2] abbreviates: dose: 100.0 mg/kg/injection, schedule: Q01DX005 (ip), vehicle: Klucel (hydroxypropylcellulose) (HPC).
The mark [3] stands for this setting: dose: 200.0 mg/kg/injection, schedule: Q01DX005 (ip), vehicle: Klucel (hydroxypropylcellulose) (HPC).
Setting [4] is: dose: 240.0 mg/kg/injection, schedule: Q01DX005 (ip), vehicle: saline with Tween-80.
The mark [5] stands for this setting: dose: 50.0 mg/kg/injection, schedule: Q01DX009 (ip), vehicle: Klucel (hydroxypropylcellulose) (HPC).
Setting [6] is: dose: 120.0 mg/kg/injection, schedule: Q01DX005 (ip), vehicle: saline with Tween-80.
The mark [7] stands for this setting: dose: 60.0 mg/kg/injection, schedule: Q01DX005 (ip), vehicle: saline with Tween-80.

Consider `O=C1C(=O)c2ccccc2C(O)=C1CC=C(Br)Br`, for which the survivor count under setting [1] is listed as 3 of 6 and the survivor count (dose: 400.0 mg/kg/injection, schedule: Q04DX003 (ip), vehicle: saline with Tween-80) is on record as 3 of 6.

Turning to `C=C(C)C(=NC(C)C)Nc1ccccc1`, the T/C is 104 % of control (dose: 50.0 mg/kg/injection, schedule: Q01DX005 (ip), vehicle: Klucel (hydroxypropylcellulose) (HPC), evaluated on day 20) and 103 [5 of 6 alive], 107, 118 % of control (dose: 50.0 mg/kg/injection, schedule: Q01DX005 (ip), vehicle: Klucel (hydroxypropylcellulose) (HPC), evaluated on day 30). Moreover, the survivor count is reported as 1 of 6 under setting [2] and 0 of 6 under setting [3].

Turning to `O=Cc1cc(/C(N=Nc2ccccc2C(=O)O)=N/Nc2ccccc2C(=O)O)nc2[nH]c(=O)ccc12`, the survivor count under setting [3] is 6 of 6.

On to `C1CC2CCC(N3CCCC3)C(C1)C21OCCO1` (stereo not given), for which the survivor count under setting [4] is recorded as 0 of 6.

For the compound `Nc1nc(F)nc2c1ncn2C1OC(COP(=O)(O)O)C(O)C1O` (stereo not given), the T/C was 136 % of control under setting [5]; 148 % of control (dose: 60.0 mg/kg/injection, schedule: Q01DX009 (ip), vehicle: saline, evaluated on day 30); 147, 149 (2×), 155 % of control (dose: 60.0 mg/kg/injection, schedule: Q01DX009 (ip), vehicle: saline, evaluated on day 45); 143, 146, 151, 156, 163 % of control (dose: 60.0 mg/kg/injection, schedule: Q01DX009 (ip), vehicle: saline, evaluated on day 60); 164 % of control (dose: 90.0 mg/kg/injection, schedule: Q01DX009 (ip), vehicle: saline, evaluated on day 30); 173, 175 (2×), 177 (2×), 178, 186 % of control (dose: 90.0 mg/kg/injection, schedule: Q01DX009 (ip), vehicle: saline, evaluated on day 45). Besides, the T/C by setting is: (dose: 90.0 mg/kg/injection, schedule: Q01DX009 (ip), vehicle: saline, evaluated on day 60) 161, 166, 171, 175, 177 (2×), 182 % of control; (dose: 134.0 mg/kg/injection, schedule: Q01DX009 (ip), vehicle: saline, evaluated on day 30) 199 % of control; (dose: 134.0 mg/kg/injection, schedule: Q01DX009 (ip), vehicle: saline, evaluated on day 45) 194, 202, 203, 207, 214, 215, 226 % of control; (dose: 134.0 mg/kg/injection, schedule: Q01DX009 (ip), vehicle: saline, evaluated on day 60) 191 (2×), 198, 202, 203 (2×), 213 % of control; (dose: 200.0 mg/kg/injection, schedule: Q01DX009 (ip), vehicle: saline, evaluated on day 30) 233 % of control; (dose: 200.0 mg/kg/injection, schedule: Q01DX009 (ip), vehicle: saline, evaluated on day 45) 138, 224, 225, 235 (2×), 241, 247 % of control. Moreover, the T/C was 110, 218, 224 (2×), 229, 230, 248 % of control (dose: 200.0 mg/kg/injection, schedule: Q01DX009 (ip), vehicle: saline, evaluated on day 60); 89 and 116 % of control (dose: 250.0 mg/kg/injection, schedule: Q01DX009 (ip), vehicle: saline, evaluated on day 45); 105 and 106 % of control (dose: 250.0 mg/kg/injection, schedule: Q01DX009 (ip), vehicle: saline, evaluated on day 60); 127 % of control (dose: 400.0 mg/kg/injection, schedule: Q04DX002 (ip), vehicle: saline); 138 % of control (dose: 800.0 mg/kg/injection, schedule: Q01DX001 (ip), vehicle: saline, evaluated on day 5); 137 % of control [9 of 10 alive] (dose: 800.0 mg/kg/injection, schedule: Q01DX001 (ip), vehicle: saline, evaluated on day 45). The T/C is 137 and 147 % of control (dose: 800.0 mg/kg/injection, schedule: Q04DX002 (ip), vehicle: saline); 143 % of control (dose: 1200.0 mg/kg/injection, schedule: Q01DX001 (ip), vehicle: saline, evaluated on day 5); 145 % of control [9 of 10 alive] (dose: 1200.0 mg/kg/injection, schedule: Q01DX001 (ip), vehicle: saline, evaluated on day 45); 142 % of control [7 of 10 alive] (dose: 1500.0 mg/kg/injection, schedule: Q01DX001 (ip), vehicle: saline). Further, the survivor count by setting is: (dose: 400.0 mg/kg/injection, schedule: Q01DX009 (ip), vehicle: Klucel (hydroxypropylcellulose) (HPC)) 3 of 6 and 6 of 6; (dose: 1800.0 mg/kg/injection, schedule: Q01DX001 (ip), vehicle: saline) 2 of 4 and 5 of 10.

Regarding `CNC(=O)OCc1c(COC(=O)NC)c(-c2ccsc2)n2c1CCC2`, under “dose: 30.0 mg/kg/injection, schedule: Q01DX005 (ip), vehicle: saline with Tween-80”, the T/C is 125 % of control. In addition, the survivor count was 1 of 6 under setting [6] and 0 of 6 under setting [4].

Turning to `C[Si](C)(CCCNCCN)O[Si](C)(C)CCCNCCN`, the survivor count is reported as 0 of 6 under setting [6] and 0 of 6 under setting [4].

With `CN(C)CC(CN(C)C)C(=O)c1ccc(Oc2ccc(Cl)c(Cl)c2)cc1`, the survivor count (dose: 7.5 mg/kg/injection, schedule: Q01DX005 (ip), vehicle: saline) is listed as 2 of 6; the survivor count (dose: 15.0 mg/kg/injection, schedule: Q01DX005 (ip), vehicle: saline) is reported as 5 of 6; the survivor count (dose: 30.0 mg/kg/injection, schedule: Q01DX005 (ip), vehicle: saline) is given as 0 of 6; the survivor count (dose: 60.0 mg/kg/injection, schedule: Q01DX005 (ip), vehicle: saline) is 0 of 6; the survivor count (dose: 120.0 mg/kg/injection, schedule: Q01DX005 (ip), vehicle: saline) is given as 0 of 6; the survivor count (dose: 240.0 mg/kg/injection, schedule: Q01DX005 (ip), vehicle: saline) is listed as 0 of 6.

`Cc1ccc(-c2c3c(c(-c4ccc(C)cc4)c(-c4ccccc4)c2-c2ccccc2)-c2ccccc2C3)cc1`: the survivor count runs as follows: (dose: 100.0 mg/kg/injection, schedule: Q01DX009 (ip), vehicle: saline with Tween-80) 6 of 6; under setting [1], 6 of 6.

Regarding `C[CH2][Sn]([CH2]C)([O]S(=O)(=O)CC12CCC(CC1=O)C2(C)C)[O]S(=O)(=O)CC12CCC(CC1=O)C2(C)C`, the T/C runs as follows: (dose: 6.25 mg/kg/injection, schedule: Q01DX009 (ip), vehicle: saline) 130 % of control; (dose: 12.5 mg/kg/injection, schedule: Q01DX009 (ip), vehicle: saline) 135 % of control; (dose: 25.0 mg/kg/injection, schedule: Q01DX009 (ip), vehicle: saline) 133 % of control [5 of 6 alive].

As to `Cc1ccc(NSC(Cl)(Cl)Cl)cc1`, the survivor count is 5 of 6 (dose: 200.0 mg/kg/injection, schedule: Q01DX009 (ip), vehicle: saline) and 3 of 6 (dose: 400.0 mg/kg/injection, schedule: Q01DX009 (ip), vehicle: saline).

As to `SCc1ccccc1CS`, under setting [1], the T/C is 131 % of control and the survivor count is reported as 3 of 6. For the same compound, under “dose: 400.0 mg/kg/injection, schedule: Q01DX009 (ip), vehicle: saline with Tween-80”, the survivor count was 1 of 6 and 2 of 6.

On to `COCCCN=C(N)c1ccc(NC(=O)c2ccc(C(=O)Nc3ccc(C(N)=NCCCOC)cc3)cc2)cc1`, for which the T/C (dose: 4.4 mg/kg/injection, schedule: Q04DX003 (ip), vehicle: saline with Tween-80) is 140 % of control.

For the compound `CC(=O)CCC(=O)c1ccoc1`, the survivor count by setting is: (dose: 50.0 mg/kg/injection, schedule: Q01DX005 (ip), vehicle: Klucel (hydroxypropylcellulose) (HPC)) 0 of 5; under setting [2], 0 of 5.

For the compound `CSc1nc2ccc(N=Cc3ccc([N+](=O)[O-])cc3)cc2s1`, the survivor count by setting is: under setting [5], 6 of 6; (dose: 100.0 mg/kg/injection, schedule: Q01DX009 (ip), vehicle: Klucel (hydroxypropylcellulose) (HPC)) 6 of 6.

As to `O=C1C=CC(=O)[C@H]2CC=C3OC4OC5(CCCCC5)OC4[C@H]3[C@@H]12` (stereo not given in full), the survivor count under setting [7] is recorded as 6 of 6.

Consider `Cc1nn(-c2ccccc2)nc1C(=O)Nc1ccccc1C(=O)NCC1CC1`, for which, under setting [7], the survivor count is listed as 6 of 6.
